These results are taken from PMC4882554.

This test addresses T1, AtMC1 (Arabidopsis thaliana metacaspase 1) (Arabidopsis thaliana) (UniProt Q7XJE6).
T1 sequence: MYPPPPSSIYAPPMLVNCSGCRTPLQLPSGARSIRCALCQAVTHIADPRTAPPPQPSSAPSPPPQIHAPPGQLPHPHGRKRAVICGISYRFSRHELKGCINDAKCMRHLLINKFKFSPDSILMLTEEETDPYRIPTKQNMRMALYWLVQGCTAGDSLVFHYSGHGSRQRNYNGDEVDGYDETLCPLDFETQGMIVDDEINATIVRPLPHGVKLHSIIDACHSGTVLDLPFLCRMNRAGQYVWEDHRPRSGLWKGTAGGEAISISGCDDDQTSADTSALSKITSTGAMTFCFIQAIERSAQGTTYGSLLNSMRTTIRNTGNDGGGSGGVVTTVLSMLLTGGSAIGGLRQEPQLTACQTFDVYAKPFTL
As to the kind of experiment: two-hybrid; baits in pGBKT7 (pBD), preys in pGADT7 (pAD), co-transformed in pairs into yeast strain AH109; selected on SD/-Leu-Trp, then tested on SD/-Leu-Trp-His-Ade with X-α-Gal.

These are yes or no findings as the source states them, for the method shown. Some results given as binding are weak or reduced against the parent protein; the word gives no strength.

B1: Arabidopsis lesion simulating disease 1 (LSD1) (protein, UniProt P94077 1-189)
chain: MKVADMQDQLVCHGCRNLLMYPRGASNVRCALCNTINMVPPPPPPHDMAHIICGGCRTMLMYTRGASSVRCSCCQTTNLVPAHSNQVAHAPSSQVAQINCGHCRTTLMYPYGASSVKCAVCQFVTNVNMSNGRVPLPTNRPNGTACPPSTSTSTPPSQTQTVVVENPMSVDESGKLVSNVVVGVTTDKK
As to B1, the binding entry is on record as “binds”.
